Experimental findings from paper PMC6651876, “PEA-15 C-Terminal Tail Allosterically Modulates Death-Effector Domain Conformation and Facilitates Protein–Protein Interactions” (International Journal of Molecular Sciences, 2019) are described below.

By UniProt entry, the sequences of proteins in these tests, tags left out. Where a name states a change or a piece, a line headed by the entry shows the natural chain unless it says otherwise.
UniProt Q15121: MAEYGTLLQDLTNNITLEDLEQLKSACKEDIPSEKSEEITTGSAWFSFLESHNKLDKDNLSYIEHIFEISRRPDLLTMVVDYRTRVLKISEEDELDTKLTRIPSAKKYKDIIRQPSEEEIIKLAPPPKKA
UniProt Q13158: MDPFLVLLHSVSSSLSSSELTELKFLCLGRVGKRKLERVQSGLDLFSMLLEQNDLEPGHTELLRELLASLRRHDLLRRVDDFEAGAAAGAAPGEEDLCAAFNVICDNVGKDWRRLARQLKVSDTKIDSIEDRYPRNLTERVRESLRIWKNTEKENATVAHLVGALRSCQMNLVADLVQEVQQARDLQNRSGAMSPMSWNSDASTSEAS

The target of the assay is T1, PEA-15 S104D/S116D double mutant (PEA-15DD) (UniProt Q15121 1-130, S104D | S116D).
T1 construct: PEA-15 (phosphoprotein enriched in astrocytes, 15 kDa), full length, with the phosphomimetic mutations S104D and S116D; Made by site-directed mutagenesis of the PEA-15 plasmid (pET-28b); expressed and purified as the wild type
Kind of assay: NMR titration; 2D HSQC of uniformly labeled PEA-15DD with unlabeled FADD at 1:1 molar ratio, against free PEA-15DD (0.7 mM); 20 mM sodium phosphate pH 7.0, 150 mM NaCl, 1 mM DTT, 25 °C; both purified.

No constants are given. Whether binding was seen depends on the method and setting. Some entries that bind do so weakly or less than the wild type.

As for “Fas-associated death domain (FADD) protein, full length (from UniProt Q13158 1-208)”, the binding entry was “binds”.
